Values are the deposited “Percent Effect”, in %.
How 0% and 100% were set is not recorded. Most values in the screen are low, and negative values occur.
The compounds are a random part of those screened.
A dash means the value is not listed here; it may have been measured.

A: 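Whole-cell assay for inhibitors of Mycobacterium tuberculosis growth, labelled Cornell in the record; the read-out is not stated. The concentration is filed as 10 mM, unlikely as a test dose, so the dose is not known. Higher means stronger inhibition (inferred from two other growth screens of the library). Size under these conditions: about 53,000 compounds, about 900 of them at 50% or above in at least one test.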
B: 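Assay on Mycobacterium tuberculosis, filed only as a heat shock assay from Cornell; the read-out is not stated. The concentration is filed as 10 mM, unlikely as a test dose, so the dose is not known. The record gives no direction; compounds that gave an IC50 in retests scored well above the rest, so higher reads as stronger inhibition. Size under these conditions: about 69,000 compounds, about 930 of them at 50% or above in at least one test.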

| structure | A | B |
|---|---|---|
| `O=C(c1cccc2c1OCO2)N1CCCC(n2cccn2)C1` (stereo unspecified) | 5.875% | 22.45% |
| `Cc1nc(C)c(CNC[C@@]2(COc3cccnc3)C[C@@H](O)[C@@H](O)C2)s1.Cl.Cl` | 10.59% | -41.08% |
| `CO[C@H]1CO[C@@]2(CCCN(S(=O)(=O)c3ccccc3)C2)C1` | -0.153% | -16.05% |
| `O=C(Cc1csc(-c2ccoc2)n1)NCCCN1CCCCC1` | -16.39% | -47.79% |
| `COCCN(CCC#N)S(=O)(=O)c1cc(F)ccc1F` | - | 4.572% |
| `CC(C)NC(=O)C1CCC2(CCN(Cc3cnn(C)c3)CC2)C1.O=C(O)C(F)(F)F` (stereo unspecified) | -7.192% | -3.246% |
| `CN(CCCc1nccn1C)C(=O)C1COc2ccccc2C1` (stereo unspecified) | - | -4.411% |
| `CCc1ncc(C(=O)N(C)C(C)c2ccc3c(c2)OCCO3)cn1` (stereo unspecified) | -2.31% | -33.61% |
| `CC(C)N1CCC(Nc2ccn(CCC#N)n2)C1=O` (stereo unspecified) | -6.328% | 1.889% |
| `O=C(NCCn1cccc1)C(c1cccnc1)N1CCCC1` (stereo unspecified) | 19.64% | -9.387% |
| `CCN1CC2(CC1=O)CN(C(=O)COC)CCN(S(C)(=O)=O)C2` (stereo unspecified) | 30.53% | -1.952% |
| `O=C(O)C(F)(F)F.O=C(O)C(F)(F)F.O=C(O)C(F)(F)F.[H][C@@]12CCCO[C@]1([H])[C@@H](Oc1ncccc1F)CN2Cc1cnn(C)c1` | 17.96% | -12.51% |
| `NC[C@H]1CC[C@H](C(NC(=O)C2CC2)c2ccccn2)CC1` (stereo partly specified) | - | -11.64% |
| `CO[C@@H]1CC[C@@H](NC(=O)CCc2ccc(Cl)cc2)[C@H]1O` | 35.77% | 7.807% |
| `O=C(O)C(F)(F)F.c1cn2c(n1)CN(Cc1ccsc1)CC(Cn1cncn1)C2` (stereo unspecified) | -2.483% | -22.01% |
| `CCn1nc(C)c(-c2cncn2CCN(C)C2CCCC2)c1C.Cl` | 6.646% | -4.698% |
| `O=C(COC1CCCC1)N1CCC(C(O)c2ccc(F)cc2)CC1` (stereo unspecified) | - | -15.17% |
| `Cc1cnn(CC2CCCN2CC(=O)N(C)Cc2ccco2)c1` (stereo unspecified) | 24.71% | 5.544% |
| `Cc1n[nH]c(=O)c2c(NC(=O)CN3CCCC(C(F)(F)F)C3)oc(C)c12` (stereo unspecified) | -0.4511% | 15.1% |
| `O=C(O)C(F)(F)F.[H][C@@]12CCCO[C@]1([H])[C@@H](NC(=O)c1cccn1C)CN2Cc1ccoc1` | -23.32% | -23.62% |
| `Cc1occc1C(=O)NC1CCN(C(=O)Nc2cccnc2)CC1` | - | -1.133% |
| `Cc1cccnc1CN1CCC(c2nnc(Cn3cccn3)n2C)CC1` | -10.96% | 17.95% |
| `CN(Cc1ccncc1)C(=O)[C@H]1CSCN1C(=O)OC(C)(C)C` | - | 11.57% |
| `Cc1noc(CCNC(=O)C2CSCN2C(=O)C2CCCC2)n1` (stereo unspecified) | - | -0.7933% |
| `COc1nccc(N2CC[C@@H](N3CCCCCC3)[C@H](O)C2)c1C#N` | 23.22% | -18.19% |
| `CN(Cc1cc2c(cc1OC(F)F)OCO2)Cc1nccn1C` | 20.69% | 10.89% |
| `Cc1ccc(CC(=O)N2CCCC(c3nccs3)C2)cn1` (stereo unspecified) | - | 0.7412% |
| `O=C(NC1(c2nc(C3CC3)no2)CCCCC1)c1cccnc1O` | 11.83% | 8.467% |
| `Cc1ccc(S(=O)(=O)NCCc2cccnc2)cc1C` | -9.804% | -11.97% |
| `O=C(c1ccon1)N1CCN(c2ccncc2Cl)CC1` | - | 3.399% |
| `O=C1Nc2ccccc2NC12CCN(c1cccc(C(F)(F)F)n1)CC2` | -4.654% | -29.4% |
| `O=C(NCc1ccccn1)NC1CCCN(c2ncccn2)C1` (stereo unspecified) | -71.71% | 8.651% |
| `Cn1cc(C[C@H]2[C@H](O)CCN2Cc2ccc(F)cc2)cn1.O=C(O)C(F)(F)F` | 9.943% | 3.612% |
| `CN(C)C(=O)C1CN(c2ccncn2)CCN(C2CCOCC2)C1` (stereo unspecified) | -28.59% | -25.82% |
| `Cc1cnn(CC2CN(Cc3nnc(C4CC4)o3)CCO2)c1` (stereo unspecified) | 19.95% | 31.27% |
| `Cc1noc(C)c1CN1CC2(CCN(C(=O)c3cc[nH]n3)C2)CC1=O` (stereo unspecified) | 10.78% | -22.45% |
| `Cc1cncc(C2CCCN(C(=O)c3cn(C)nc3C)C2)n1` (stereo unspecified) | - | -10.22% |
| `CCc1nnc2n1CCN(C(=O)c1cc3cc(C)ccc3[nH]1)C2` | -46.87% | 0.6066% |
| `CN(CCC1CCCCO1)c1nncc(-c2ccccc2)n1` (stereo unspecified) | 44.34% | 24.03% |
| `COc1cc(CNCCc2cnn(C)c2)cc(OC)c1OC` | - | -27.36% |
| `CC(C)Cc1cc(C(=O)N2CCC(C(=O)N3CCOCC3)CC2)on1` | - | -1.782% |
| `Cc1cc(C2CCCCN2C(=O)CN2C(=O)OC(C)(C)C2=O)no1` (stereo unspecified) | 4.599% | -1.359% |
| `Fc1ccc2[nH]c([C@H]3CCN(C4CCOCC4)C3)nc2c1` | - | -36.25% |
| `C1CCC(NCC2(N3CCOCC3)CCSC2)C1` (stereo unspecified) | 10.96% | -16.91% |
| `CC(C)[C@H](C)NC1CCN(c2ccc(-c3cscn3)cc2)CC1` | 1.696% | -31.15% |
| `O=C(c1cccc(CNS(=O)(=O)c2ccc(F)cc2)c1)N1CCCC1` | - | -7.897% |
| `O=S(=O)(c1ccccc1)N1CCCC1c1cc[nH]n1` (stereo unspecified) | - | 10.28% |
| `O=C(NCCNc1cnccn1)N1CCCC(N2CCCC2)C1` (stereo unspecified) | -8.416% | -8.188% |
| `CCC(=O)N1CCC(c2nc(C)ncc2-c2ccncc2)CC1` | -2.801% | 19.4% |
| `CNS(=O)(=O)Cc1cccc(CNCc2ccsc2)c1` | 16.36% | -1.346% |
| `COc1ccc(F)c(CN2CCCC(O)(CNCC(C)(C)C)C2=O)c1` (stereo unspecified) | -16.31% | -35.47% |
| `CCN(C)S(=O)(=O)N(CC)Cc1ccc2c(c1)OCO2` | 26.78% | -33.34% |
| `CC(C#N)CSc1ccccc1NCC(=O)NCc1cccs1` (stereo unspecified) | 19.43% | -15.47% |
| `Cn1cc(N2CC3(CCN(Cc4ccsc4)CC3)OCC2=O)cn1.O=C(O)C(F)(F)F` | -77.75% | -18.04% |
| `COc1ccccc1N1CCCC(NC(=O)Nc2cccnc2)C1` (stereo unspecified) | - | -156.1% |
| `O=C(NCc1nc2ccccc2[nH]1)c1cnn2c1OCCC2` | 21.71% | 20.76% |
| `Cc1noc(C2CCN(C(=O)CCCNc3ncccn3)CC2)n1` | - | 6.434% |
| `NC1CCN(C2CCN(c3ccc(-c4ccco4)cc3)CC2)CC1` | 21.14% | -18.41% |
| `CN(C(=O)c1ccccn1)c1nnc(C2CCOC2)s1` (stereo unspecified) | 27.79% | -4.849% |
| `O=C(O)C(F)(F)F.[H][C@@]12CCN(CC3CCOCC3)[C@@]1([H])CCN2C(=O)c1cccc(Cl)c1` | - | -227.1% |
| `Cc1ccnc(C2CCN(C(=O)c3cnn(C)c3)C2)n1` (stereo unspecified) | -18.35% | -21.84% |

For reference, 6 entries once more:

structure	A	B
CCN1CC2(CC1=O)CN(C(=O)COC)CCN(S(C)(=O)=O)C2 (stereo unspecified)	30.53%	-1.952%
CNS(=O)(=O)Cc1cccc(CNCc2ccsc2)c1	16.36%	-1.346%
NC[C@H]1CC[C@H](C(NC(=O)C2CC2)c2ccccn2)CC1 (stereo partly specified)	-	-11.64%
O=C1Nc2ccccc2NC12CCN(c1cccc(C(F)(F)F)n1)CC2	-4.654%	-29.4%
Fc1ccc2[nH]c([C@H]3CCN(C4CCOCC4)C3)nc2c1	-	-36.25%
O=C(NCCn1cccc1)C(c1cccnc1)N1CCCC1 (stereo unspecified)	19.64%	-9.387%

Source: ChEMBL document CHEMBL3988442, “University of Dundee, Small-Polar-MMV Screening Library” (2021).